# In PubChem BioAssay AID504408 (Broad Institute, 2011):
# About 5,200 (1.7%) of roughly 300,000 compounds were called active. The inconclusive results got no clear call from the source; some entries with a clear call stand among them for comparison.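 Rule for the calls: active = mean replicate activation of at least 50% with a set share of replicates each reaching 50%; inconclusive = only one of those two conditions met; inactive = mean below 50% and too few replicates reaching it.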
# Test: HSF-1 activators, primary screen, NIH3T3-HGL cells, MG132 stress, luminescence, single point (AID 504408);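 note: 0% = median of the neutral control wells and 100% = twice that signal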
# Settings: NIH3T3-HGL HSF-1 luciferase reporter, MG132, 8 h; at 9 µM; stronger effect = higher value; 100% = twice DMSO control signal
row,Structure (SMILES),activation
1,COC(=O)CSc1nc2cc(C)cc(C)c2cc1C#N,inactive: 45.3%
2,O=C(N/N=C/c1cccc([N+](=O)[O-])c1)c1cc[n+](CCO)cc1,inactive: 38.7%
3,CCOC(=O)c1c(C)sc2c1N(C(=O)CN(CC)CC)c1ccccc1S2,inconclusive: 79.9%
4,O=C(c1cc2cc(Br)ccc2o1)N1CCCCC1,inconclusive: 52.4%
5,COc1ccc(CCN2C(=O)C3C(C2=O)C2C=CC3C23CC3)cc1OC (stereo unspecified),inconclusive: 50.9%
6,O=S(=O)(c1ccc(Cl)cc1)N1CCC2(CC1)OCCN2S(=O)(=O)c1cccs1,inconclusive: 50.1%
7,N#CCCn1cc(C=C(C#N)C#N)c(-c2ccc(-c3ccccc3)cc2)n1,inconclusive: 53.8%
8,N#C/C(=C/c1cccs1)c1nc2ccccc2[nH]1,inconclusive: 52.5%
9,CCCN1CCN(C(=O)c2ccc(Sc3ccc(C)cc3)c(NC(C)=O)c2)CC1,inconclusive: 51.1%
10,Cc1ccc(C(=O)N2CCC(C(=O)NC3CCCC3)CC2)cc1,inactive: -8.65%
11,C/C(O)=C(\N=Nc1cc(C)ccc1O)C(N)=O,inactive: -14.4%
12,COc1ccc(S(=O)(=O)Nc2ccc3c(c2)n(C)c(=O)n3C)cc1F,inactive: 16.3%
13,Clc1ccc(-c2cn3c(n2)CCC3)cc1,inconclusive: 52.3%
14,Cc1nonc1C1CCCN1Cc1cn[nH]c1-c1ccc(-c2ccccc2)cc1 (stereo unspecified),active: 61.9%
15,COc1ccc(S(=O)(=O)N2CCOCC2)cc1NC(=O)CSc1ncnc2ccccc12,active: 72.7%
16,Cc1cccc(N2CCN(c3nc(C)cc(C)c3C#N)CC2C)c1 (stereo unspecified),inconclusive: 52.5%
17,COc1ccc(S(=O)(=O)N2CCCCCC2)cc1C(=O)N(C)Cc1ccc(C(C)(C)C)cc1,inconclusive: 50.8%
18,COc1ccc(C[C@H]2CN3C(=NC[C@H]3C)N2CCNC(=O)c2ccc(C)c(Br)c2)cc1,inactive: -12.4%
19,CC1CCN(C(=O)COC(=O)Cc2ccc(Br)cc2)CC1,inconclusive: 51.5%
20,Cc1c(C(=O)N2c3ccccc3CC2C)oc2ccccc12 (stereo unspecified),inconclusive: 53.2%
21,O=C1NCC(c2ccccc2)C1C(=O)N/N=C/c1ccc(Cl)s1 (stereo unspecified),inactive: 3.83%
22,O=C(/C=C/c1ccc(N2CCC(c3ccccc3)=N2)cc1)c1ccccc1,inconclusive: 55.3%
23,COCCOCCn1c(/C=C/c2ccccc2)nc2ccccc21,active: 60%
24,CC(=O)Nc1cccc(NC=C(C#N)C#N)c1,inactive: 0.176%
25,COc1ccccc1CNC(=O)C1CCC(CNS(=O)(=O)c2cccs2)CC1 (stereo unspecified),inactive: 3.26%
26,O=C(Oc1ccc(Cl)c2cccnc12)c1ccco1,inactive: -10.4%

# Exported with tabs: 2 of the compounds above
row	Structure (SMILES)	activation
23	COCCOCCn1c(/C=C/c2ccccc2)nc2ccccc21	active: 60%
24	CC(=O)Nc1cccc(NC=C(C#N)C#N)c1	inactive: 0.176%
